No constants are given. Whether binding was seen depends on the method and setting. Binding seen in cells or lysates may run through a third protein. A yes stands for co-enrichment or nearness to the bait. Other partners may have been found.
Biological target: GFP-APC3 (Drosophila)
Experiment: affinity purification with mass spectrometry; GFP affinity purification (GFP-trap nanobeads) from lysates of 0-2 h Drosophila embryos (for GFP-APC3 also from CycB3^+/+ and CycB3^2/+ mothers); LC-MS

B1: Fizzy/Cdc20 (protein, UniProt Q24044 1-526)
chain: MSQFNFVSDLQNALIMDGETRGPAPRWKKKLEASLNGSVNTTRSVLSVSYNTSFSGVQAPTKTPGKSSEGKTKKSNTTPSKTPGGGDRFIPNRAATNFELAHFLVNKDSGDKSDEENDKATSSNSNESNVQASAHKGDRQKLISEVAQVGDSKGGRILCYQNKAPAAPETHNNPLKVVYSIKTPISTKSGSRYIPTTSERILDAPDFINDYYLNLMDWSADNIVAVALGSCVYLWNAQTGNIEQLTEFEEGDYAGSLSWIQEGQILAIGNSTGAVELWDCSKVKRLRVMDGHSARVGSLAWNSFLVSSGSRDGTIVHHDVRAREHKLSTLSGHTQEVCGLKWSTDFKYLASGGNDNLVNVWSAASGGVGTATDPLHKFNDHQAAVRALAWCPWQPSTLASGGGTADRCIKFWNVNNGTLMKSVDSKSQVCSLLFSRHYKELISAHGFANNQLTIWKYPTMVKQADLTGHTSRVLQMAMSPDGSTVISAGADETLRLWNCFAPDPLASKKAVSTSKGKQSVFRQSIR
In the case of B1, the binding is reported as “binds”.

B2: Cortex (protein, UniProt Q960N3 1-483)
chain: MFVEMSVCDSPNKNSKLDKKSLTPFKKVRRKNWKQEAAYKSDTSKGQEVSYVGERFIPNRFERENIEFNLKYIGKRKERDILETGVTLTASYWRQSGFISNINRTFGIGERRLFQFSSQQGTRSRVVDNDSADSDWPCNPRARPYAIQNATHEMPGICSPVDYNMMDWSSGGMVAMSSGQDVMLWRNLDESTMVFSVESPTSLKYSPDGKHLAIGCMDRNYPVLDLWEVRSPTEFLVSYRKLFFKSMGYISCIEWSHDGKEVICGTQCGVIIVLAMPTLNTLMQLREHRHTVKKMKFAPTHKYFASSDTDGKIFIFDAVLKVRLLKLDGRSIVFDWHPWTGEDLAVAERSPASIFIFNIPRRQFVASYRRRDDRIVIKTLTYSKITGELLVNVIRRDDADLAVCEILVLASLNRVVDLMSHQDRGTLFLMWNPDGTKIATGGLDDTFSLWNFFPTYKREAILRKQEQKAKDKCSSLSLYKGIR
With B2 the binding was “binds”.

From publication PMC7660922
